1 substance from patent publication US10246497 (dated 2019) can be followed below.

The series can be described thus: general procedure: Fmoc solid-phase peptide synthesis; Tentagel RAM (Rapp Polymere) or Rink amide ChemMatrix; DIC / Oxyma Pure in NMP; PyBOP/DIPEA for 16-sulfonic hexadecanoic acid. Conditions: whole synthesis, UPLC-AP-01, scale of the general procedure 0.25 mmol or 0.4 mmol.

As for [Trp30]hPYY(3-36), the “final HPLC purity” value is listed as 96.6%.
